# Test results taken from PMC9816388.
# Target: CpxR-P (phosphorylated His6-CpxR) (Actinobacillus pleuropneumoniae) (UniProt A0ABM6X2V6)
# Test: EMSA
# Conditions: acetyl phosphate-phosphorylated CpxR, 2.5 mM Mg2+, 50 mM Tris-HCl pH 8.0, 2.5 mM MgCl2, 100 mM KCl, 0.2 mM DTT, 10% glycerol, 2 ug salmon sperm DNA, 24 C 20 min, probe 1 uM, CpxR-P 0-4 pmol, 4% native PAGE in 0.5x TBE, recombinant protein, protein details: His6 (pET30a), label: biotin, probe letters rebuilt from the primers and the genome
Sequence,binding result,binding result (complex lost with excess (100-fold) unlabeled probe)
CCGAATCCTTTCGCACTATTGAACCATTTCACGATGCCAACTTCCATAATTCTCTCCTATCTTACGGCATTGATATTACGCGGTGCATTGTAGTCAAAAAAGTGAACCTCACAATCGGAAATGTTTGAAAATTCGAACAAGATCACAAAATTTTTTAAAATACGGAGGTT (double strand) [cspD promoter region],no binding,–
TTGATGAAAAGAATTGCTGCACGTTTGTTTGGAGATTAGAGATTTATTCGCGAAGAACTCTCAGAAAATCAGAAGATTTATAGAAAGGAAAACATCGATAAAGCAATCGTACTCAAGAACGCTACGAGAAGCGTTTTCGATTAGAACATTAAAAAAACATTAAAGCAAATATTTTTTGAACTTATTTATCGGAATTGAAACATAGAAATATATGAACGTAACAAAATAGCGTAATGACTTGATTTTATATAGACGGGAATCCGTAAATAAAATATAGTAGCGGGCTAAGACTCTGTATTGGGTCGGCATCTATTTGGACTTAAAT (double strand) [cspC promoter region],–,binds

# Negatives hold for the conditions tested. Construct, isoform or probe ends are uncertain for at least one entry.
